Reference: patent US5212286A (Scios Nova Inc., priority 1986, dated 1993)
Strings that start with PEPTIDE1 are HELM notation: dots part the residues, brackets hold end groups and non-standard residues. The same purity stands for every peptide and may come from a single statement.

Assay: general procedure: Boc solid-phase peptide synthesis; chloromethylated polystyrene resin; p-Methylbenzhydrylamine (pMBHA) resin for amides; N,N'-dicyclohexylcarbodiimide
Settings: whole synthesis, reversed phase HPLC, acetate salt

Row | Substance | final HPLC purity
1 | PEPTIDE1{R.S.S.C.F.G.G.R.I.D.R.I.G.A.Q.S.G.L.G.C.N.S.F.R.Y}$PEPTIDE1,PEPTIDE1,4:R3-20:R3$$$V2.0 | minimum 97% purity
2 | PEPTIDE1{R.S.S.C.F.G.G.R.M.D.R.I.G.A.Q.S.G.L.G.C.N.S.F.R.Y}$PEPTIDE1,PEPTIDE1,4:R3-20:R3$$$V2.0 | minimum 97% purity
